Source: PubChem BioAssay AID504764 (Drosophila RNAi Screening Center, 2011)
The screen tested about 22,000 reagents; shown is a random part of those with a known target gene and a result. Over the whole deposit, 403 (1.9%) are marked active. 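Unnormalised raw counts per well; ratio z-scores behind the hit calls and whether each hit raises or lowers signal are not deposited.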 Entries without a mark were called inactive. The numbers tell different reagents against one gene apart. Names joined by + are all predicted targets of the reagent. No sequences are given here. Not given: the amount of reagent.

- Purpose: 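Genes whose knock-down alters Notch-dependent transcription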 (primary screen)
- Cells: Drosophila Kc167 cells
- Reagents: long dsRNA against Drosophila genes
- Duration: about 5 days (4 days dsRNA, then 24 h after transfection)
- Conditions: transfection of constitutively active membrane-tethered Notch lacking the extracellular domain, read 24 h later
- Measured: 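Firefly luciferase from an E(spl)m3 reporter with active Notch, plus control-promoter and uninduced reporter wells for normalisation; unnormalised counts, duplicate wells a and b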
- Scale: induced reporter light, run 1, well a and induced reporter light, run 1, well b: higher = more light from the Notch target reporter with active Notch; control promoter light, run 1, well a and control promoter light, run 1, well b: higher = more light from the viral control promoter (cell number, transfection, viability); uninduced reporter light, run 1, well a: higher = more light from the Notch target reporter without active Notch
- Hit rule: 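Wells with low control signal or poorly matching duplicates excluded; duplicates averaged; per source plate, z beyond ±2 for induced/control log2 ratio or beyond ±1.8 for induced/uninduced marks a hit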
- Calls: active = modifier hit (raised or lowered Notch signal); inactive = not a hit

| predicted target | dsRNA no. | induced reporter light, run 1, well a | induced reporter light, run 1, well b | control promoter light, run 1, well a | control promoter light, run 1, well b | uninduced reporter light, run 1, well a |
| --- | --- | --- | --- | --- | --- | --- |
| CG5897 | 1 | 1.30e5 | 1.55e5 | 2.00e5 | 1.48e5 | 7092 |
| Tim13 | 1 | 1.55e5 | 1.20e5 | 1.86e5 | 1.82e5 | 8210 |
| CG4645 | 1 | 1.60e5 | 1.65e5 | 1.70e5 | 2.15e5 | 12055 |
| CG32450 | 1 | 2.56e5 | 2.34e5 | 2.98e5 | 3.18e5 | 20280 |
| mRpL22 | 1 | 47810 | 56430 | 64890 | 67285 | 5700 |
| Mics1 | 1 | 75505 | 92265 | 1.02e5 | 53920 | 6700 |
| CG13511 | 1 | 2.42e5 | 2.00e5 | 2.03e5 | 1.85e5 | 15420 |
| Rfx | 1 | 87560 | 76700 | 68470 | 56860 | 5495 |
| bi | 1 | 1.79e5 | 1.72e5 | 3.28e5 | 2.61e5 | 12540 |
| HemK2 + Snapin | 1 | 1.77e5 | 2.31e5 | 2.14e5 | 2.43e5 | 19328 |
| HemK2 + Snapin | 2 | 1.01e5 | 1.09e5 | 96335 | 66110 | 11445 |
| CG2129 | 1 | 1.67e5 | 1.07e5 | 1.51e5 | 1.22e5 | 7750 |
| CG14132 | 1 | 1.48e5 | 1.07e5 | 1.78e5 | 1.89e5 | 7005 |
| tomboy40 | 1 | 2.10e5 | 2.04e5 | 1.90e5 | 1.86e5 | 16500 |
| HLH3B | 1 | 95365 | 1.03e5 | 1.79e5 | 1.87e5 | 6265 |
| msb1l | 1 | 1.92e5 | 2.02e5 | 1.99e5 | 1.98e5 | 15450 |
| nub | 1 | 1.55e5 | 1.25e5 | 1.53e5 | 1.69e5 | 8895 |
| nub | 2 | 1.61e5 | 1.77e5 | 1.63e5 | 1.63e5 | 15265 |
| nub | 3 | 66355 | 72460 | 58640 | 67630 | 6250 |
| nub | 4 | 1.13e5 | 1.22e5 | 1.27e5 | 1.36e5 | 10705 |
| RpL19 | 1 | 8935 | 8835 | 5475 | 6235 | 410 |
| ATPsynG | 1 | 1.09e5 | 1.30e5 | 56850 | 80970 | 16942 |
| Sec31 | 1 | 1.07e5 | 92670 | 65055 | 65525 | 6150 |
| CG31407 | 1 | 1.85e5 | 1.49e5 | 2.27e5 | 1.81e5 | 12182 |
| CG10222 | 1 | 66505 | 68830 | 95010 | 71315 | 4728 |
| UbcE2H | 1 | 2.55e5 | 1.93e5 | 3.22e5 | 3.31e5 | 12438 |
| inc | 1 | 97965 | 1.29e5 | 1.48e5 | 2.00e5 | 9110 |
| inc | 2 | 1.84e5 | 2.02e5 | 2.68e5 | 2.91e5 | 13725 |
| CG10098 | 1 | 1.33e5 | 1.17e5 | 86120 | 93435 | 10935 |
| CR14798 | 1 | 1.20e5 | 1.43e5 | 2.89e5 | 2.70e5 | 9345 |
| Uba3 | 1 | 1.45e5 | 1.38e5 | 1.65e5 | 1.81e5 | 14525 |
| Pos | 1 | 1.15e5 | 97845 | 1.49e5 | 1.41e5 | 8265 |
| MKP-4 | 1 | 1.48e5 (active) | 1.41e5 | 1.36e5 | 1.22e5 | 13045 |
| fd3F (retired record) | 1 | 17515 | 19360 | 43180 | 40810 | 5380 |

Targets listed so far whose gene name starts with N or n (4):
| predicted target | dsRNA no. | induced reporter light, run 1, well a | induced reporter light, run 1, well b | control promoter light, run 1, well a | control promoter light, run 1, well b | uninduced reporter light, run 1, well a |
| --- | --- | --- | --- | --- | --- | --- |
| nub | 1 | 1.55e5 | 1.25e5 | 1.53e5 | 1.69e5 | 8895 |
| nub | 2 | 1.61e5 | 1.77e5 | 1.63e5 | 1.63e5 | 15265 |
| nub | 3 | 66355 | 72460 | 58640 | 67630 | 6250 |
| nub | 4 | 1.13e5 | 1.22e5 | 1.27e5 | 1.36e5 | 10705 |
